Experimental findings from PMC2709443 are described below.

Test [1] has as its target T1, MAC3A-HA (P35S-MAC3A-HA) (Arabidopsis thaliana) (UniProt Q94BR4).
T1 sequence: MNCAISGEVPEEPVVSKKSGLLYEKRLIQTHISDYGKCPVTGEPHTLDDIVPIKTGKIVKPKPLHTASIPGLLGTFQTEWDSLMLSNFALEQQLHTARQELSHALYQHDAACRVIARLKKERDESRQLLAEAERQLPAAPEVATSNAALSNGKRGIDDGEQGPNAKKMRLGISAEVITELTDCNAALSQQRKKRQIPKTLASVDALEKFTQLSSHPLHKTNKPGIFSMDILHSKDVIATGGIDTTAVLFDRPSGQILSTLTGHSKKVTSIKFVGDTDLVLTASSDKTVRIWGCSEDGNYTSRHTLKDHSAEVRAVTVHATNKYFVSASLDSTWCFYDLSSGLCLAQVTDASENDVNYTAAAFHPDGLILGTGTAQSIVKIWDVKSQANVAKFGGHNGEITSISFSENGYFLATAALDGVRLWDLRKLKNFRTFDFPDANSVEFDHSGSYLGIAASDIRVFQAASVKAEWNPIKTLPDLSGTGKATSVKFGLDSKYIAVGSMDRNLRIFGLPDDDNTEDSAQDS
As to the kind of experiment: co-IP; MAC3A-HA precipitated with anti-HA microbeads from nuclear extract (NE-2 with 100 mM NaCl, 0.2% Triton X-100) of about 15 g leaf tissue of P35S-MAC3A-HA mac3a mac3b plants; washes with 150 mM NaCl; western blot with anti-HA and anti-AtCDC5; Col-0 as control.

Test [2] has as its target T2, MAC3A-CFP (P35S-MAC3A-CFP) (Arabidopsis thaliana) (UniProt Q94BR4).
T2 sequence: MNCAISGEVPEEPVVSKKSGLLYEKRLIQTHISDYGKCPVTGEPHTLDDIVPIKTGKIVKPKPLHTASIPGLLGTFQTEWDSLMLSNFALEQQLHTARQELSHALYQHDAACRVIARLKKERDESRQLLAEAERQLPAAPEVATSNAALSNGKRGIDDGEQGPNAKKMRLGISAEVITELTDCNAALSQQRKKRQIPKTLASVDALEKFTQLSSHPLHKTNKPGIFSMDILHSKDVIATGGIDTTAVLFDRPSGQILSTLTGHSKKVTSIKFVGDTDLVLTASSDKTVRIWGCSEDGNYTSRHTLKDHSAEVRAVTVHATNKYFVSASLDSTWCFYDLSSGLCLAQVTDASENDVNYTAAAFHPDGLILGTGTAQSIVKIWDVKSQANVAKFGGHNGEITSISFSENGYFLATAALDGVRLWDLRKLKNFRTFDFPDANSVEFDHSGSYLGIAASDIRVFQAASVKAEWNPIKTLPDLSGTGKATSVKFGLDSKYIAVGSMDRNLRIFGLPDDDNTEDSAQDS
Nature of the test: co-IP; MAC3A-CFP precipitated with anti-GFP microbeads from total nuclear extract of P35S-MAC3A-CFP mac3a mac3b plants; western blot with anti-GFP and anti-AtCDC5; Col-0 as control.

No constants are given. Whether binding was seen depends on the method and setting. In cells and extracts the contact can be indirect. Some binding calls cover weakened binding; strength is not graded here. Sequences can lack the tags named with a protein.

B1: AtCDC5/MAC1; R2-R3 Myb transcription factor (protein, UniProt P92948 1-844)
chain: MRIMIKGGVWKNTEDEILKAAVMKYGKNQWARISSLLVRKSAKQCKARWYEWLDPSIKKTEWTREEDEKLLHLAKLLPTQWRTIAPIVGRTPSQCLERYEKLLDAACTKDENYDAADDPRKLRPGEIDPNPEAKPARPDPVDMDEDEKEMLSEARARLANTRGKKAKRKAREKQLEEARRLASLQKRRELKAAGIDGRHRKRKRKGIDYNAEIPFEKRAPAGFYDTADEDRPADQVKFPTTIEELEGKRRADVEAHLRKQDVARNKIAQRQDAPAAILQANKLNDPEVVRKRSKLMLPPPQISDHELEEIAKMGYASDLLAENEELTEGSAATRALLANYSQTPRQGMTPMRTPQRTPAGKGDAIMMEAENLARLRDSQTPLLGGENPELHPSDFTGVTPRKKEIQTPNPMLTPSMTPGGAGLTPRIGLTPSRDGSSFSMTPKGTPFRDELHINEDMDMHESAKLERQRREEARRSLRSGLTGLPQPKNEYQIVAQPPPEESEEPEEKIEEDMSDRIAREKAEEEARQQALLKKRSKVLQRDLPRPPAASLAVIRNSLLSADGDKSSVVPPTPIEVADKMVREELLQLLEHDNAKYPLDDKAEKKKGAKNRTNRSASQVLAIDDFDENELQEADKMIKEEGKFLCVSMGHENKTLDDFVEAHNTCVNDLMYFPTRSAYELSSVAGNADKVAAFQEEMENVRKKMEEDEKKAEHMKAKYKTYTKGHERRAETVWTQIEATLKQAEIGGTEVECFKALKRQEEMAASFRKKNLQEEVIKQKETESKLQTRYGNMLAMVEKAEEIMVGFRAQALKKQEDVEDSHKLKEAKLATGEEEDIAIAMEASA
On to B1, for which the binding entry in test [1] and in test [2] was “binds” in each case.
